According to patent US10968181B2, “NRF2 activator” (BIOGEN MA INC., priority 2016, dated 2021):
Some entries share one result that the patent states for a list of compounds.

System: NRF2
Experiment: PathHunter Nuclear Translocation assay (DiscoverX), agonist format
Assay type: cell-based
Conditions: read-out: EC50 (NRF2 TRANSLOCATION), 6 hours at room temperature, duplicate, 10 concentrations, 30 μM top concentration, normalized to control ligand CDDO methyl ester and vehicle

Compound | EC50
CN1CC=C2C(C)(C)C(=O)C(C#N)=CC2(C)C1=O (single isomer, unassigned) [Compound 103-Ent2] | < 0.1 µM
CC(C)CN1CC=C2C(C)(C)C(=O)C(C#N)=CC2(c2ccccc2)C1=O (single isomer, unassigned) [Compound 108-Ent2] | < 0.1 µM
CC12C=C(C#N)C(=O)C(C)(C)C1CCN(C=O)C2 (single isomer, unassigned) [Compound 35-Ent1] | < 1 µM
[2H]C([2H])([2H])C(=O)N1CC[C@@H]2C(C)(C)C(=O)C(C#N)=C[C@@]2(C)C1 [Compound 63] | < 1 µM
CC(F)C(=O)N1CCC2C(C)(C=C(C#N)C(=O)C2(C)C)C1 (stereo not shown) [Compound 66] | < 1 µM
CC1C(=O)C(C#N)=CC2(c3ccccc3)C(=O)N(C(C)C)CCC12 (single isomer, unassigned) [Compound 91-Ent2] | < 0.1 µM
CC1(C)C(=O)C(C#N)=CC2(c3ccccc3)C(=O)N(Cc3ccccc3)CC=C12 (single isomer, unassigned) [Compound 107-Ent1] | < 10 µM
CC(=O)N1CC=C2C(C)(C=C(C#N)C(=O)C2(C)C)C1 (single isomer, unassigned) [Compound 32-Ent1] | < 1 µM
CC(C)N1CC=C2C(C)(C)C(=O)C(C#N)=CC2(c2ccccc2)C1=O (single isomer, unassigned) [Compound 110-Ent2] | < 0.1 µM
CC(=O)N1CC=C2C(C)(C=C(C#N)C(=O)C2(C)C)C1 (single isomer, unassigned) [Compound 32-Ent2] | < 10 µM
COCC(=O)N1CCC2C(C)(C=C(C#N)C(=O)C2(C)C)C1 (single isomer, unassigned) [Compound 22-Ent2] | < 10 µM
CC12C=C(C#N)C(=O)C(C)(C)C1CCN(C=O)C2 (single isomer, unassigned) [Compound 35-Ent2] | < 10 µM
CC(C)CN1CC=C2C(C)(C)C(=O)C(C#N)=CC2(c2ccccc2)C1=O (single isomer, unassigned) [Compound 108-Ent1] | < 1 µM
CCN1CCC2C(C)(C)C(=O)C(C(F)(F)F)=CC2(c2ccccc2)C1=O (single isomer, unassigned) [Compound 159-Ent1] | < 0.1 µM
CC(=O)N1CC[C@@H]2C(C)(C)C(=O)C(C(F)(F)F)=C[C@@]2(C)C1 [Compound 156] | < 0.01 µM
CN1CC=C2C(C)(C)C(=O)C(C#N)=CC2(C)C1=O (single isomer, unassigned) [Compound 103-Ent1] | < 10 µM
COC(=O)N1CC[C@@H]2C(C)(C)C(=O)C(C#N)=C[C@@]2(C)C1 [Compound 64] | < 1 µM
CC1(C)C(=O)C(C#N)=CC2(c3ccccc3)C(=O)N(Cc3ccccc3)CC=C12 (single isomer, unassigned) [Compound 107-Ent2] | < 0.1 µM
CC1C(=O)C(C#N)=CC2(c3ccccc3)C(=O)N(C(C)C)CCC12 (single isomer, unassigned) [Compound 91-Ent1] | < 10 µM
